From patent EP0920487B1, “COMPOSITION AND METHOD FOR INHIBITING THE DEPOSITION OF PROTEIN ON CONTACT LENS” (BAUSCH & LOMB INCORPORATED, priority 1996, dated 1997)
At least one compound was matched to its structure with a doubt left.

Tested on: lysozyme
Assay: SPE protein-binding inhibition screening (Sep-Pak Accell Plus CM solid-phase extraction cartridge, absorbance of eluent at 280 nm)
Parameters: species or system hen
Conditions: test compound 1% in BBS; then 0.05% lysozyme; corrected for BBS control
Text: In another aspect of the present invention, selected polyquaternium polymers simultaneously satisfy the dual requirements of both (i) meeting ophthalmological safety standards for an in-the-eye contact-lens solution at concentrations of 1000 ppm and (ii) inhibiting protein binding to a contact lens. The safety requirements can be determined according to the so-called NRDR (neutral red dye release) assay for cytotoxicity described in the Examples. In particular, the polyquaternium polymer should have an NRDR assay rating of L or less at a level of 1000 ppm., preferably L or less at a level of 500 ppm (dry weight of polymer, correcting for water content of the available polymer material). […] The amount of protein-binding inhibition is determined compared to a control solution. […]
This Experiment illustrates the measurement of the protein-displacing effects of various polyquaternium polymers. […] The absorbance measurements were conducted by (1) taking an initial absorbance with BBS in a 1 cm cuvette, which reading should be 0.000, re-autozeroing if necessary with BBS, (2) rinsing and filling the cuvette with 0.05% lysozyme solution and reading the absorbance to obtain the "maximum inhibition value', and (3) reading the absorbances for the solutions in the test tubes used to collect the eluents from the test cartridges. […]

CC(O)CN(CCN(CC(C)O)CC(C)O)CC(C)O (stereo not shown) [Quadrol Polyol, tetrahydroxypropyl ethylene-diamine]
Average % SPE Binding Inhibition: 8%
